Data taken from article PMC12499416, “ATF3 Deficiency Exacerbates Ageing‐Induced Atherosclerosis and Clinical Intervention Strategy” (Advanced Science, 2025).
Results are given in words; binding and its absence hold for the method and conditions named. In cells and extracts the contact can be indirect. A yes stands for co-enrichment or nearness to the bait. Other partners may have been found.

Target: activating transcription factor 3 (ATF3), endogenous in VSMCs (mouse (endogenous in VSMCs))
Experiment: affinity purification with mass spectrometry; immunoprecipitation with ATF3 antibody against IgG control, mass spectrometry of the precipitate; cells not named for this experiment

binding: binds
B1: autophagy-related 7 (ATG7), endogenous in VSMCs (protein, UniProt Q9D906 1-698)
chain: MGDPGLAKLQFAPFNSALDVGFWHELTQKKLNEYRLDEAPKDIKGYYYNGDSAGLPTRLTLEFSAFDMSASTPAHCCPAMGTLHNTNTLEAFKTADKKLLLEQSANEIWEAIKSGAALENPMLLNKFLLLTFADLKKYHFYYWFCCPALCLPESIPLIRGPVSLDQRLSPKQIQALEHAYDDLCRAEGVTALPYFLFKYDDDTVLVSLLKHYSDFFQGQRTKITVGVYDPCNLAQYPGWPLRNFLVLAAHRWSGSFQSVEVLCFRDRTMQGARDVTHSIIFEVKLPEMAFSPDCPKAVGWEKNQKGGMGPRMVNLSGCMDPKRLAESSVDLNLKLMCWRLVPTLDLDKVVSVKCLLLGAGTLGCNVARTLMGWGVRHVTFVDNAKISYSNPVRQPLYEFEDCLGGGKPKALAAAERLQKIFPGVNARGFNMSIPMPGHPVNFSDVTMEQARRDVEQLEQLIDNHDVIFLLMDTRESRWLPTVIAASKRKLVINAALGFDTFVVMRHGLKKPKQQGAGDLCPSHLVAPADLGSSLFANIPGYKLGCYFCNDVVAPGDSTRDRTLDQQCTVSRPGLAVIAGALAVELMVSVLQHPEGGYAIASSSDDRMNEPPTSLGLVPHQIRGFLSRFDNVLPVSLAFDKCTACSPKVLDQYEREGFTFLAKVFNSSHSFLEDLTGLTLLHQETQAAEIWDMSDEETV
